In one experiment the target is Myc-Lphn3-mV (mouse) (UniProt Q80TS3). Put plainly: co-IP; lysate of HEK293T cells co-transfected with FLRT2, Lphn3 and Unc5D constructs; mV-fused bait precipitated with rabbit anti-GFP antibody and protein G sepharose; 1% Triton X-100, 50 mM Tris-HCl pH 7.5, 150 mM NaCl; blots with anti-Flag, anti-HA, anti-Myc.
For experiment [1], the target named is HA-Unc5D mono-Venus fusion protein (HA-Unc5D-mV) (rat) (UniProt F1LW30). The experiment is described as above.

Chains of the proteins cited; added tags and fusions are not shown. Lines headed by an entry give the natural chain unless they say otherwise; changes in a name come on top. A line that says so, or that is headed by a name, gives the form on record, which may keep a tag or linker. Residues count along the entry.
Myc-Lphn3-mV (Q80TS3, form named): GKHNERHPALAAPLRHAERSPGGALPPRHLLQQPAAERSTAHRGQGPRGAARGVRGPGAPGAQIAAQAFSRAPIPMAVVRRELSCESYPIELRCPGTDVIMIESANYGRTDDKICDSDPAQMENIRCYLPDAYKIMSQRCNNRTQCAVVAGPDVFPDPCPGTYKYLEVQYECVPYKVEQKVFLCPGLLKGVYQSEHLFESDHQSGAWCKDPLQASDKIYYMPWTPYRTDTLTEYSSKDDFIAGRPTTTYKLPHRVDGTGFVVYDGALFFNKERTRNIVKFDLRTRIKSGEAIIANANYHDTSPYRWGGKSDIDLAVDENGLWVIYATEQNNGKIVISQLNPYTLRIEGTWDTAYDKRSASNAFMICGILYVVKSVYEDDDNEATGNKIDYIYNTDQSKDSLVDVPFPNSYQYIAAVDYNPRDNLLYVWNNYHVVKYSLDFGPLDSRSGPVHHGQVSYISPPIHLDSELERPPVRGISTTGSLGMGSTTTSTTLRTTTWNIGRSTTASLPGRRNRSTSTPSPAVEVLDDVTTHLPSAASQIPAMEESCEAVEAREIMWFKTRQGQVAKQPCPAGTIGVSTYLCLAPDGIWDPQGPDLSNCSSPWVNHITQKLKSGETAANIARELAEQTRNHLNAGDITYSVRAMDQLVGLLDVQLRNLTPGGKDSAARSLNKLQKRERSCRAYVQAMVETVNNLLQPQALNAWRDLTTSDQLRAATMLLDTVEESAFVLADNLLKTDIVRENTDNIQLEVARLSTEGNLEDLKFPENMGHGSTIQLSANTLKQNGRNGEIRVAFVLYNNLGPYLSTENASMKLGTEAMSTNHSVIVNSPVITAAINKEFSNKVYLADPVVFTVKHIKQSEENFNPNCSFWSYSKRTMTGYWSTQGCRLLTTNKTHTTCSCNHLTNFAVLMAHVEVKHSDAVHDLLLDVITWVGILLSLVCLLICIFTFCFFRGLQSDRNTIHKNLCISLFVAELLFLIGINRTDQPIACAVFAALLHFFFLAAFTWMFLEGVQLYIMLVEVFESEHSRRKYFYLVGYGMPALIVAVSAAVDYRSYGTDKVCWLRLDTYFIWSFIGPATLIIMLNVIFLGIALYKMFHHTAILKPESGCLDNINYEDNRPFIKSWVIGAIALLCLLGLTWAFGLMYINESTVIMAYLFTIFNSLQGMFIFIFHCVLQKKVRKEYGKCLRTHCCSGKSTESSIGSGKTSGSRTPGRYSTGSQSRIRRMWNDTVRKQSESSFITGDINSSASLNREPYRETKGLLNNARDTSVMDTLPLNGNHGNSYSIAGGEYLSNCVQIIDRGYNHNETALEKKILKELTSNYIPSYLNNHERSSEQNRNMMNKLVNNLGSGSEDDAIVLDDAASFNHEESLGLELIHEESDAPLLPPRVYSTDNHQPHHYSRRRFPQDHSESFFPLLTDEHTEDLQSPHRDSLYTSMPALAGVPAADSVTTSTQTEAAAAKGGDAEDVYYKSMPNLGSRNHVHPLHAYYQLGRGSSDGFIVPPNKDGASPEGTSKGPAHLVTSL
UniProt F1LW30, residues 46-956: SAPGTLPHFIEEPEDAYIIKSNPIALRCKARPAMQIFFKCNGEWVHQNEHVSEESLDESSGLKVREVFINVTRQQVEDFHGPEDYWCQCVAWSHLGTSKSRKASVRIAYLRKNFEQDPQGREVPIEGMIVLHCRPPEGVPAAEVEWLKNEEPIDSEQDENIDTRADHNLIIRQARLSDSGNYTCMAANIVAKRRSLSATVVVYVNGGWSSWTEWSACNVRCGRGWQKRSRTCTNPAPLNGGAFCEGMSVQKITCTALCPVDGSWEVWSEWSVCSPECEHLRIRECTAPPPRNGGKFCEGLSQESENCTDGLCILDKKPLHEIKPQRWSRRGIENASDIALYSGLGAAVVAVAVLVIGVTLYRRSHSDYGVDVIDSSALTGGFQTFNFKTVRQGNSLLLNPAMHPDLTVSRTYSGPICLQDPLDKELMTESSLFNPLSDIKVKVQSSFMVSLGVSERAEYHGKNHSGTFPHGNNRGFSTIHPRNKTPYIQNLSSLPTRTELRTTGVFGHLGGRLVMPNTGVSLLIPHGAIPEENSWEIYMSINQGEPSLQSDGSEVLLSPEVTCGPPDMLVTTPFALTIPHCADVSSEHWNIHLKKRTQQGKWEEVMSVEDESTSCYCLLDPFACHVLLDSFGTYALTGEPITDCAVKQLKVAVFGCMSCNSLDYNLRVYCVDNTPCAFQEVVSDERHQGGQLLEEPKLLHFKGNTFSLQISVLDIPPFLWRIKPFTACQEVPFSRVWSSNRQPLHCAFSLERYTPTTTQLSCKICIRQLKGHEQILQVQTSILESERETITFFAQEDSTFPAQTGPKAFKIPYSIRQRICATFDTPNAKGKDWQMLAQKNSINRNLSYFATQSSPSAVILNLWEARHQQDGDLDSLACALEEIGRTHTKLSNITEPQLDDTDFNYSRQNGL

Results are given in words; binding and its absence hold for the method and conditions named. Binding seen in cells or lysates may run through a third protein. Some results given as binding are weak or reduced against the parent protein; the word gives no strength. Tags and fused reporters may be left off the sequences shown.

B1: FLAG-FLRT2 (N-terminal FLAG tag, C-terminal Avitag) (receptor, UniProt Q8BLU0 35-660)
chain: ACPSVCRCDRNFVYCNERSLTSVPLGIPEGVTVLYLHNNQINNAGFPAELHNVQSVHTVYLYGNQLDEFPMNLPKNVRVLHLQENNIQTISRAALAQLLKLEELHLDDNSISTVGVEDGAFREAISLKLLFLSKNHLSSVPVGLPVDLQELRVDENRIAVISDMAFQNLTSLERLIVDGNLLTNKGIAEGTFSHLTKLKEFSIVRNSLSHPPPDLPGTHLIRLYLQDNQINHIPLTAFANLRKLERLDISNNQLRMLTQGVFDHLSNLKQLTARNNPWFCDCSIKWVTEWLKYIPSSLNVRGFMCQGPEQVRGMAVRELNMNLLSCPTTTPGLPVFTPAPSTVSPTTQSPTLSVPSPSRGSVPPAPTPSKLPTIPDWDGRERVTPPISERIQLSIHFVNDTSIQVSWLSLFTVMAYKLTWVKMGHSLVGGIVQERIVSGEKQHLSLVNLEPRSTYRICLVPLDAFNYRTVEDTICSEATTHASYLNNGSNTASSHEQTTSHSMGSPFLLAGLIGGAVIFVLVVLLSVFCWHMHKKGRYTSQKWKYNRGRRKDDYCEAGTKKDNSILEMTETSFQIVSLNNDQLLKGDFRLQPIYTPNGGINYTDCHIPNNMRYCNSSVPDLEHCHT
For B1, the binding entry (with Myc-Lphn3-mV (mouse); in experiment [1]) was “binds” in each case.

Source of the values: article PMC4838878.
